{"source": "patent US20250271426A1", "about": "“REDUCTION OF BITTER TASTE OF ACTIVE PHARMACEUTICAL INGREDIENTS AND RELATED ASSAYS AND SCREENING METHODS” (Firmenich Incorporated, priority 2022, published 2025)", "target": "T1, T2R receptor SEQ ID NO: 6 (S6) (Homo sapiens, UniProt P59540)", "T1 construct": "expressed in transfected cells; host or cells: cells expressing a promiscuous G protein (e.g., G16g44)", "T1 sequence (P59540 1-309)": "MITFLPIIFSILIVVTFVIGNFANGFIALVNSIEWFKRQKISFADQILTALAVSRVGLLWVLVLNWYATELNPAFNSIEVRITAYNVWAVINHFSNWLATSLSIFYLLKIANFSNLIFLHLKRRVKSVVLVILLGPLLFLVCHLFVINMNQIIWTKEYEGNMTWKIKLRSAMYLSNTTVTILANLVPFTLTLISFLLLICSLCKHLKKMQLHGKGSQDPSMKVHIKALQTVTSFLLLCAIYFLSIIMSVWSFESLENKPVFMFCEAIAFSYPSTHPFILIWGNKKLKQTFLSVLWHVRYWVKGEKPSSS", "test": "FLIPR calcium assay, cells with promiscuous G protein transfected with bitter receptor cDNA", "type": "cell-based", "conditions": "responsive if cellular response of >10% over baseline, Fluo4-AM", "description": "Cells expressing a promiscuous G protein (e.g., G16g44) were transfected with vectors encoding 22 functional bitter receptor cDNAs, with one receptor per transfection. The cells were transfected directly in 384-well format high-density plates and incubated for 28 hours. Later, cells were loaded with the Ca-specific dye Fluo4-AM. After an incubation of 60 minutes, excess dye is washed off, and cells are stimulated with respective bitter agonists while simultaneously recording changes in intracellular fluorescence using a FLIPR instrument.\nThe above protocol was carried out using 94 different active pharmaceutical ingredients (APIs) that span a wide range of different APIs having a diversity of chemical structures. A particular T2R receptor was identified as being responsive to a particular API if it triggered a cellular response of >10% over baseline.", "data": [{"smiles": "Cc1ccccc1C(OCCN(C)C)c1ccccc1", "note": "(stereo not shown) [Orphenadrine]", "values": [{"measurement": "S6 positive response of T2R receptor to API", "value": "+ (a “+” to indicate whether a particular T2R receptor showed a positive response to a particular API)"}]}]}
